The target in one assay is T1, Polo-GFP (Drosophila) (UniProt P52304).
T1 sequence: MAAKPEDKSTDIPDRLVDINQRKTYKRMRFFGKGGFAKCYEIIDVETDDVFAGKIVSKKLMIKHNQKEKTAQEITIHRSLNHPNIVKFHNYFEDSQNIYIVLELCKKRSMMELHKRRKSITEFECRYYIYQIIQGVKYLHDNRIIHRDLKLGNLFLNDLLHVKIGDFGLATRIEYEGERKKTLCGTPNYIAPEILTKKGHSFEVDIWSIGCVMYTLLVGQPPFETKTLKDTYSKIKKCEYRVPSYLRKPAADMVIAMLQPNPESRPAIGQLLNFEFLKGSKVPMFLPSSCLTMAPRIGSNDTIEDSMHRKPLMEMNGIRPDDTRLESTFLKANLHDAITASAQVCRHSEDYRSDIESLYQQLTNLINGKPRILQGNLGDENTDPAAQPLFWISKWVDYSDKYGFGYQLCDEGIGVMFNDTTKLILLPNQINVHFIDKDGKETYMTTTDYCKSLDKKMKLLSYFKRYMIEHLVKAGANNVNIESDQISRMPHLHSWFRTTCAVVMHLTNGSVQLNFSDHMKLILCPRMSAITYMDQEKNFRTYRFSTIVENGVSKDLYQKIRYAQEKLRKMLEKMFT
Description: co-IP; anti-GFP crosslinked to protein G Dynabeads, lysates of D-Mel2 lines stably expressing Polo-GFP or Aurora B-GFP, 1 h at 4°C; INCENP detected by immunoblotting.

Assay [1] deals with GST tagged full-length Drosophila Incenp (Drosophila). Description: pull-down; GST-INCENP mixed with in vitro translated 35S labelled proteins, then glutathione beads; bound proteins detected by SDS-PAGE; binding buffer 50 mM Tris pH 7.5, 10 mM MgCl2, 1 mM EGTA, 1 mM DTT, 0.1% Triton X-100; only the target purified.
The target in assay [2] is INCENP (endogenous, Drosophila cultured cells) (Drosophila (endogenous in DMel-2)). Description: proximity ligation; Duolink PLA on fixed DMel-2 cells with pairs of primary antibodies against the two proteins.

No constants are given. Whether binding was seen depends on the method and setting. Binding seen in cells or lysates may run through a third protein. Binding calls can cover weak binding; strength is not graded here. For part of these data: Sequences can lack the tags named with a protein.

For the molecule “INCENP (endogenous, Drosophila cultured cells)”, in the assay with Polo-GFP (Drosophila), the binding entry is “binds”.

B1: in vitro translated 35S labelled Aurora B (enzyme, UniProt Q9VKN7 1-329)
chain: MTLSRAKHANRNHLPHLLAKVPEEHQEPIKNMCLKMMSHDAYGQPYDWSPRDFEMGAHLGRGKFGRVYLARERHSHYLVAMKVMFKEELRKGCVQRQVLREIEIQSRLKHPHILRLLTWFHDESRIYLALEIASEGELFKHLRGAPNHRFDEPRSAKYTYQVANALNYCHLNNVIHRDLKPENILLTSTDDLKLADFGWSAHTPNNKRRTLCGTLDYLPPEMVDGNSYDDSVDQWCLGILCYEFVVGCPPFESNSTESTYSKIRRMEISYPSHLSKGCKELIGGLLRKESKGRITLVDVMTHYWVKAGMAERELQLQKRERGKENTARN
modifications: 35S labelled
Turning to B1, the binding entry in assay [1] was “binds”.

B2: Aurora B (endogenous, Drosophila cultured cells) (enzyme, UniProt Q9VKN7 1-329)
chain: MTLSRAKHANRNHLPHLLAKVPEEHQEPIKNMCLKMMSHDAYGQPYDWSPRDFEMGAHLGRGKFGRVYLARERHSHYLVAMKVMFKEELRKGCVQRQVLREIEIQSRLKHPHILRLLTWFHDESRIYLALEIASEGELFKHLRGAPNHRFDEPRSAKYTYQVANALNYCHLNNVIHRDLKPENILLTSTDDLKLADFGWSAHTPNNKRRTLCGTLDYLPPEMVDGNSYDDSVDQWCLGILCYEFVVGCPPFESNSTESTYSKIRRMEISYPSHLSKGCKELIGGLLRKESKGRITLVDVMTHYWVKAGMAERELQLQKRERGKENTARN
Regarding B2, the binding result in assay [2] is “binds”.

The record behind these values is article PMC3265468.
